# Assay results: PubChem BioAssay AID540275 (National Center for Advancing Translational Sciences (NCATS), 2011)
# Sequences of proteins named here, by UniProt entry; tags and fusion partners are left off.
# UniProt Q8NER1, whole entry, looked up: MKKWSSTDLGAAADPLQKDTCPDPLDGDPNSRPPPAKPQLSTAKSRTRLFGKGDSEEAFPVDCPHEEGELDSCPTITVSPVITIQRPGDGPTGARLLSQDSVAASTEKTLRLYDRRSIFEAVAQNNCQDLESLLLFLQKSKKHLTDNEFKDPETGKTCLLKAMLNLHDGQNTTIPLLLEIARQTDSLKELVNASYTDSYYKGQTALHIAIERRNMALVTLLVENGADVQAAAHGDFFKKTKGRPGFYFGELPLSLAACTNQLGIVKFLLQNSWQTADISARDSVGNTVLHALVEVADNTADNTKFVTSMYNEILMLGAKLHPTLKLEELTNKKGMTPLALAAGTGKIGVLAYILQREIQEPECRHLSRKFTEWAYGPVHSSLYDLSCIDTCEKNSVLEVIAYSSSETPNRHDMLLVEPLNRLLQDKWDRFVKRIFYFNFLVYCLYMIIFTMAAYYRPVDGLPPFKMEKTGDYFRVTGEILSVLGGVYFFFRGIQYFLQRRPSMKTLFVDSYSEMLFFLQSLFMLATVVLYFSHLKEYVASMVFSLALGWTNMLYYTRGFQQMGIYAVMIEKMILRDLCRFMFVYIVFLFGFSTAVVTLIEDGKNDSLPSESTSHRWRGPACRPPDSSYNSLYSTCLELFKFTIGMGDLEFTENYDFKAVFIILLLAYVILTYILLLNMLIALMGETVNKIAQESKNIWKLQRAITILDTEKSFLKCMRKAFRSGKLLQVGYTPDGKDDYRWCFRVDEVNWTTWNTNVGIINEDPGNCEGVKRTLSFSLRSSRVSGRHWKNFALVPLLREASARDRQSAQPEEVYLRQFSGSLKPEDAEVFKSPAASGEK
# In all, about 320,000 compounds went through this assay and about 620 (0.19%) were called active. The shares of active, inactive and inconclusive entries below differ from those in the screen. Rule as the data show it: active = activation above about 80%; inconclusive = between about 30% and that limit; inactive = weaker than that.
# Biological target: Transient receptor potential cation channel subfamily V member 1 (Homo sapiens) (UniProt Q8NER1)
# Experiment: HTS Assay for Compounds that Act as Agonists of the Vanilloid Receptor 1; also: 0% is about no effect
# Details: TRPV1-expressing cells, Fluo-8 calcium influx, agonist mode; at 8.33 µM, active compounds read high
# Method in brief: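 Cells expressing TRPV1 were dye-loaded with Fluo-8 and read kinetically: 10 s baseline, 3 min after compound (agonist portion), then 2 min after EC20 capsaicin (allosteric enhancer portion). Calcium-bound dye fluorescence at 480/520 nm.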
row,Compound,activation
1,O=C(CCCc1ccccc1)NCc1ccc(F)cc1,inconclusive: 61.7%
2,COc1ccc2c(c1OC)C(=O)N1N=C(c3ccc(Br)cc3)CC21 (stereo not given),inconclusive: 37%
3,O=C(NCCS(=O)(=O)c1ccc(Br)cc1)c1ccc(F)cc1,inconclusive: 49.6%
4,COc1ccc(Cl)cc1S(=O)(=O)NC(C)C(=O)NCCCn1ccnc1 (stereo not given),inactive: 1.44%
5,COc1ccc(C(=O)Nc2nnc(CC(=O)N/N=C/c3ccc(O)cc3O)s2)cc1,inconclusive: 31.7%
6,O=C(/C=C/c1cc(Br)ccc1O)c1ccco1,inactive: -2.64%
7,COc1ccc(N(C(=O)/C=C/C(=O)Nc2cc(C)on2)C(C(=O)NC2CCCC2)c2ccccc2C)cc1 (stereo not given),inconclusive: 30.2%
8,CCCCCn1c(=O)[nH]c2cc(C(=O)NCCCN(CC)CC)ccc2c1=O,inactive: 2.04%
9,CCCSc1cc(N2CCOCC2)nc(-c2ccccc2Cl)n1,inconclusive: 37.9%
10,Cc1ccc(-n2cc(CN(C)Cc3nccn3C)c(-c3cccc(C)c3)n2)cc1,inconclusive: 38.2%
11,Cc1c(Cl)ccc2c(C(=O)NCCCn3nccc3C)cc(-c3ccccn3)nc12,inconclusive: 59.8%
12,CC(C(=O)Nc1ccccc1)N1C(=O)c2ccccc2C1=O (stereo not given),inactive: -1.13%
13,CCCN(CCC)Cc1c(C(=O)N/N=C/c2ccc(C)o2)nnn1-c1nonc1N,inconclusive: 45.7%
14,CCNc1nc(NCC)nc(N(C#N)CCOc2ccccc2)n1,inactive: 5.77%
15,Cn1cc(S(=O)(=O)N2CCc3ccccc32)cc1C(=O)NC(C)(C)C,inactive: -1.64%
16,O=C1NC(=S)N/C1=C\c1cccnc1,inactive: 0.226%
17,CCn1ncc(Br)c1C(=O)Nc1nccs1,inactive: -0.341%
18,CCC[C@@H]1C[C@@]1(CCC)[C@@H](NP(=O)(c1ccccc1)c1ccccc1)c1ccc(C(=O)OC)cc1,inconclusive: 52.1%
19,Cc1ccc(N=C2NC(=O)/C(=C\c3ccco3)S2)cc1,inactive: 11.7%
20,Cc1ccc(N2CCN(S(=O)(=O)c3c(C)nc4scc(C)n4c3=O)CC2)c(C)c1,inconclusive: 47.5%
21,CCCCOC(=O)n1c(SCC(=O)N(C)C)nc2ccccc21,inconclusive: 36%
22,Cc1ccccc1OCC(=O)Nc1ccc(C)c(S(=O)(=O)N2CCCCCC2)c1,inconclusive: 40.1%
23,CN(C)c1cccc(C(=O)OCCNC(=O)c2cccc(S(=O)(=O)N3CCOCC3)c2)c1,inactive: -2.15%
24,Cc1ccc(SCCNC(=O)/C=C/c2ccc(Cl)cc2)cc1,inconclusive: 43.1%
25,Cc1cc(C(C)(C)C)oc1C(=O)N(CC(=O)NC1CCCC1)c1ccc(F)cc1,inconclusive: 43.1%

# Random excerpt: two compounds from above.
row,Compound,activation
6,O=C(/C=C/c1cc(Br)ccc1O)c1ccco1,inactive: -2.64%
19,Cc1ccc(N=C2NC(=O)/C(=C\c3ccco3)S2)cc1,inactive: 11.7%
